Source: patent publication US6864373B2, “Stable amorphous celecoxib composite and process therefor” (Pharmacia Corporation, priority 2002, dated 2005)
At least one compound was matched to its structure with a doubt left.

Assay: X-Ray diffraction of precipitate separated from mixtures (crystalline or amorphous)
Type: physicochemical
Settings: precipitate filtered after stirring at room temperature (M-6: 4 days; CM-1: 3 days; M-11: 21 days)

With Cc1ccc(-c2cc(C(F)(F)F)nn2-c2ccc(S(N)(=O)=O)cc2)cc1 [celecoxib, 4-[5-(4-methylphenyl)-3-(trifluoromethyl)-1H-pyrazol-1-yl]benzenesulfonamide] the “solid-state form of precipitate by X-Ray diffraction” value was “crystalline material”.
